From article PMC2174970

The chains behind the UniProt entries cited, without tags or fusion partners. Where a name states a change or a piece, a line headed by the entry shows the natural chain unless it says otherwise.
UniProt Q7Z0C9: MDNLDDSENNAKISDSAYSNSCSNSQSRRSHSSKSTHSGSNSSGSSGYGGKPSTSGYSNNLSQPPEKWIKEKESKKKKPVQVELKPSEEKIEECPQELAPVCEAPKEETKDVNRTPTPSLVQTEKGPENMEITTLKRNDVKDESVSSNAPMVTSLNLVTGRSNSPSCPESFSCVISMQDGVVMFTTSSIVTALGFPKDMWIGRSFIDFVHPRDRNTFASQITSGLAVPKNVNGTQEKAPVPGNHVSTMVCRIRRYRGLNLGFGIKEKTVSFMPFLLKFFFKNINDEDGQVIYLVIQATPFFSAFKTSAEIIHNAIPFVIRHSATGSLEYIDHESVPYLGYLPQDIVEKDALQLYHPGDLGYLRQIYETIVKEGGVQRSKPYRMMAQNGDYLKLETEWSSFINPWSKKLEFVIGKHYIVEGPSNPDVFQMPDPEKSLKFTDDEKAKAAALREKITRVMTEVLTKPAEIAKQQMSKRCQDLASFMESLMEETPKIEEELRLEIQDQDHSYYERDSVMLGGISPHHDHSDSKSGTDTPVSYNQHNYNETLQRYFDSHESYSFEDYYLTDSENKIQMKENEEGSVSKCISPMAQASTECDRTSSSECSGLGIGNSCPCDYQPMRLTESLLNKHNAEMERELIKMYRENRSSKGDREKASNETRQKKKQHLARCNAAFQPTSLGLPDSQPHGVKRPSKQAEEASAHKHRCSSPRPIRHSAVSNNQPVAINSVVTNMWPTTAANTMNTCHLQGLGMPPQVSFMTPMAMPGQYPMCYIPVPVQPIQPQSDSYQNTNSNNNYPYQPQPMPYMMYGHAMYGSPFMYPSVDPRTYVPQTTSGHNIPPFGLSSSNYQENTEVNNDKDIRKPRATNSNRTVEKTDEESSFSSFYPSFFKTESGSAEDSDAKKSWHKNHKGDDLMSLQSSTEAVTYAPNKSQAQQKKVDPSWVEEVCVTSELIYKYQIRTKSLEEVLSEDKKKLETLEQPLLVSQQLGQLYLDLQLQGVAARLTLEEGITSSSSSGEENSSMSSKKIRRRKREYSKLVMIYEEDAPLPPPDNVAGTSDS

What was measured:
[1] = biological target: T1, monarch CRYPTOCHROME 2 (CRY2) (Danaus plexippus (endogenous in DpN1 cells and monarch brain)) (UniProt Q0QWP3); experiment: co-IP; DpN1 cell extract (20 mM HEPES pH 7.9, 5% glycerol, 100 mM KCl, 0.1% Triton X100); rat anti-PER (R33), anti-TIM (R38) or anti-CRY2 (R41) on protein G sepharose, overnight at 4 °C; Western blot with guinea pig GP40, GP47, GP51; endogenous proteins
T1 sequence: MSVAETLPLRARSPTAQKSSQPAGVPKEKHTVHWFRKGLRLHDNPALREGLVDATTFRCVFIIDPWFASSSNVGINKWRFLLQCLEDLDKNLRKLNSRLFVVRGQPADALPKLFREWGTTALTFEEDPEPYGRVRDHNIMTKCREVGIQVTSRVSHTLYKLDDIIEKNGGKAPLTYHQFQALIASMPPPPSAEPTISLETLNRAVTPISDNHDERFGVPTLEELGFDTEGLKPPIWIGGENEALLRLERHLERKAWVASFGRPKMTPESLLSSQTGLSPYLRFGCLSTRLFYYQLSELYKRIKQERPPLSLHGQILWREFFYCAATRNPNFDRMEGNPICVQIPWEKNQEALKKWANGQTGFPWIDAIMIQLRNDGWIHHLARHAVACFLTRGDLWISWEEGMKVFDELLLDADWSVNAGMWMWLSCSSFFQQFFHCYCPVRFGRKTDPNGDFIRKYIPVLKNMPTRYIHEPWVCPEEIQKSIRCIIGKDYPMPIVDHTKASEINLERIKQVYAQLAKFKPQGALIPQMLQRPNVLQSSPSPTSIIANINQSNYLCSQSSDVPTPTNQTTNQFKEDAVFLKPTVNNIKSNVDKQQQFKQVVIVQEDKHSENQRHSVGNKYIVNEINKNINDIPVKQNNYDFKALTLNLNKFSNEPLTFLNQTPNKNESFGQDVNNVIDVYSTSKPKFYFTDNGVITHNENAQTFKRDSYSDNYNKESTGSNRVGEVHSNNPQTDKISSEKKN

[2] = biological target: T1, monarch CRYPTOCHROME 2 (CRY2) (Danaus plexippus (endogenous in DpN1 cells and monarch brain)); experiment: co-IP; monarch brain extract (brains from animals frozen at ZT 18, photoreceptor layers removed; same extraction buffer); rat anti-PER (R33), anti-TIM (R38) or anti-CRY2 (R41) on protein G sepharose, overnight at 4 °C; Western blot with guinea pig GP40, GP47, GP51; endogenous proteins
[3] = biological target: monarch TIMELESS (TIM) (Danaus plexippus (endogenous in DpN1 cells and monarch brain)); experiment: co-IP; DpN1 cell extract (20 mM HEPES pH 7.9, 5% glycerol, 100 mM KCl, 0.1% Triton X100); rat anti-PER (R33), anti-TIM (R38) or anti-CRY2 (R41) on protein G sepharose, overnight at 4 °C; Western blot with guinea pig GP40, GP47, GP51; endogenous proteins
[4] = biological target: monarch PERIOD (PER) (Danaus plexippus (endogenous in DpN1 cells and monarch brain)) (UniProt Q7Z0C9); experiment: as above
[5] = biological target: monarch TIMELESS (TIM) (Danaus plexippus (endogenous in DpN1 cells and monarch brain)); experiment: co-IP; monarch brain extract (brains from animals frozen at ZT 18, photoreceptor layers removed; same extraction buffer); rat anti-PER (R33), anti-TIM (R38) or anti-CRY2 (R41) on protein G sepharose, overnight at 4 °C; Western blot with guinea pig GP40, GP47, GP51; endogenous proteins
[6] = biological target: monarch PERIOD (PER) (Danaus plexippus (endogenous in DpN1 cells and monarch brain)) (UniProt Q7Z0C9); experiment: as above

binding [1]: binds
binding [2]: binds
Molecule: monarch PERIOD (PER) (from UniProt Q7Z0C9)

binding [1]: binds
binding [2]: binds
Molecule: monarch TIMELESS (TIM)

binding [3]: binds
binding [4]: binds
binding [5]: binds
binding [6]: binds
B1: monarch CRYPTOCHROME 2 (CRY2) (protein, UniProt Q0QWP3 1-742)
chain: T1 sequence

Results are given in words; binding and its absence hold for the method and conditions named. In cells and extracts the contact can be indirect. Binding calls can cover weak binding; strength is not graded here. One block for each molecule: values may come before it.
